This passage reports binding results from paper PMC5356871.

By UniProt entry, the sequences of proteins in these tests, tags left out.
UniProt P57059: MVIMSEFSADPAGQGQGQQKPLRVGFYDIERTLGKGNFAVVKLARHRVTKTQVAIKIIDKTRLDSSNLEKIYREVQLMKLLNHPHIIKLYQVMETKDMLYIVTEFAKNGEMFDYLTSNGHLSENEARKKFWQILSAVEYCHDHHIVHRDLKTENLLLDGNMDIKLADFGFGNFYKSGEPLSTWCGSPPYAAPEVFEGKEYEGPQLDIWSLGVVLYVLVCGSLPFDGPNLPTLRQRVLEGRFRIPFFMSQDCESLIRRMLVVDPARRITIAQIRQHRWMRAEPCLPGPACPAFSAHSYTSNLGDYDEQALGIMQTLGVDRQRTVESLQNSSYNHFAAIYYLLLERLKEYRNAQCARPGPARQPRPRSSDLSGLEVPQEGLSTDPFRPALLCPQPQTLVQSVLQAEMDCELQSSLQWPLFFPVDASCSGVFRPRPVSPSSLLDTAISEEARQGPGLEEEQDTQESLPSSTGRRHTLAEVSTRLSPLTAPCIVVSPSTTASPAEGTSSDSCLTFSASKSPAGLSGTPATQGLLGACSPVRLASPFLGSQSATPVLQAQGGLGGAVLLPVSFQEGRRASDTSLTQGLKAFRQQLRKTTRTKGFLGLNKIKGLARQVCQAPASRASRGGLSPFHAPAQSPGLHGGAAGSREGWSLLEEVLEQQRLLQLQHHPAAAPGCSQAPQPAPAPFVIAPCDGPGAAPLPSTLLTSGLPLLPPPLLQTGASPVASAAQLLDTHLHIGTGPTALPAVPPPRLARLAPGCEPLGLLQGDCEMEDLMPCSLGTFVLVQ
UniProt Q99496: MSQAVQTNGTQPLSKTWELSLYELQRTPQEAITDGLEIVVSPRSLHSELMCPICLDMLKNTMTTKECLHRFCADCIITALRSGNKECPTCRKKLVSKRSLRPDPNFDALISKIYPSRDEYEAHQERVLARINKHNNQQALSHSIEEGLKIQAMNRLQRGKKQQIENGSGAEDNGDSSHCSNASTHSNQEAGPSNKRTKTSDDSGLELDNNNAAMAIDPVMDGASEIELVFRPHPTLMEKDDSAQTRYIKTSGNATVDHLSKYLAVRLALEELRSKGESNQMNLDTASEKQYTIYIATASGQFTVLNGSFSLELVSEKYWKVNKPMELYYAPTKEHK

This experiment deals with Flag-tagged-SIK1 (salt-inducible kinase 1) (UniProt P57059). The experiment in a line: affinity purification with mass spectrometry; affinity purification of Flag-tagged SIK1 followed by MS analysis; cells and conditions not stated.

No constants are given. Whether binding was seen depends on the method and setting. Binding seen in cells or lysates may run through a third protein. A yes stands for co-enrichment or nearness to the bait. Other partners may have been found.

“RNF2 found in complex with Flag-SIK1 (from UniProt Q99496 1-336)”: the binding entry is given as “binds”.
